In PubChem BioAssay AID504467 (National Center for Advancing Translational Sciences (NCATS), 2011):
Where “and” joins values, the source holds several entries; their conditions need not be identical. Identical values can stand only once. Screen size: about 330,000 compounds; about 7,700 (2.3%) were called active. Inconclusive means that the source gave no clear call. Such entries were picked first, then a sample of the others. The call rests on the fitted dose curve; in most records, active means well fitted inhibition curve with a large enough effect; inconclusive means small, poorly fitted or top-dose-only effect, or effect the other way; inactive means flat fitted curve, though single readings scatter. Potencies of inconclusive entries are doubtful fits and often do not repeat.

test: qHTS screen for small molecules that inhibit ELG1-dependent DNA repair in human embryonic kidney (HEK293T) cells expressing luciferase-tagged ELG1; details: HEK293T ELG1-luciferase reporter, luminescence, 16 h, DNA damage induced by 5-fluorouridine; series mostly up to 46.1 µM; further: nearly all actives have a fitted effect of over 55% in size
How it was run: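 Overnight (16 hr) co-exposure of 2,000 cells/well to 5-fluorouridine and compound at 37 °C preceded detection. Luciferase was quantified via ONE-Glo luminescence; loss of signal denotes inhibition.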
Potency means the concentration at half of the fitted maximal effect.

| SMILES | Potency |
| --- | --- |
| CCn1c(SCC(=O)N2CCN(c3ccccc3)CC2)nc2c(c1=O)SC(C)C2 (stereo unspecified) | active: 23.1 µM |
| COc1ccc(-c2csc3nc(C)nc(N4CCC(C)CC4)c23)cc1OC | inconclusive: 18.3 µM [activator, partial curve] |
| N#CC(Cc1ccc(OC(F)F)cc1)c1nc2ccccc2[nH]1 (stereo unspecified) | inconclusive: 9.2 µM [activator, partial curve] |
| Nc1c(/C=C2/C=CC(=O)C(O)=C2)c(=O)nc2sc(CC(=O)N3CCCC3)nn12 | inconclusive: 23.1 µM [activator, partial curve, poor fit] |
| Cc1ccc(N(C(=O)c2snc(C(N)=O)c2N)C(C(=O)NCC2CCCO2)c2c[nH]c3ccccc23)cc1 (stereo unspecified) | inconclusive: 23.1 µM [inhibitor, single point] |
| C=CCn1c(SCC(=O)Nc2cccnc2Cl)nnc1-c1ccccc1F | inconclusive: 20.6 µM [inhibitor, partial curve, poor fit] |
| COc1ccc(NC(=O)Cc2ccc(Cl)c(Cl)c2)cn1 | inactive |
| COc1ccc(NC(=O)CN(C)C(=O)c2cc(-c3ccc(C)o3)nc3ccccc23)cc1 | active: 20.6 µM |
| COc1ccc(/C(O)=C2/C(=O)C(=O)N(CCCN3CCOCC3)C2c2ccc(N(C)C)cc2)cc1 (stereo unspecified) | inactive |
| CC(C)c1nnc(NC(=O)c2ccc(S(=O)(=O)N3CCOCC3)cc2)s1 | inconclusive: 23.1 µM [activator, partial curve, poor fit] |
| Cc1cccc(NS(=O)(=O)c2cc3c(cc2C)n(C)c(=O)c(=O)n3C)c1 | inactive |
| COc1ccc(CNC(=O)c2ccc(Cl)c(S(=O)(=O)N3CCOCC3)c2)cc1OC | inconclusive: 2.59 µM [inhibitor, full curve] |
| N#Cc1ccccc1OCC(=O)N1N=C(c2cccs2)CC1c1ccco1 (stereo unspecified) | inconclusive: 20.6 µM [activator, partial curve] |
| C[C@H](CO)N1C[C@H](C)[C@@H](CN(C)S(C)(=O)=O)Oc2ccc(NC(=O)NC3CCCCC3)cc2C1=O | inconclusive: 29.1 µM [activator, single point] |
| O=C(CCCN1C(=O)/C(=C/c2cccs2)SC1=S)Nc1ccccc1O | inactive |
| COc1cc2[nH]c(=O)n(CCCCCC(=O)N3CCN(c4ccccn4)CC3)c(=O)c2cc1OC | inconclusive: 25.9 µM [inhibitor, partial curve, poor fit] |
| CC(=O)c1c(C)[nH]c(C(=O)N2CCN(c3cc(Cl)ccc3C)CC2)c1C | active: 3.66 µM |
| Nc1c(C(=O)NCCN2CCOCC2)c2nc3ccccc3nc2n1CCc1ccccc1F | inconclusive: 20.6 µM [inhibitor, single point] |
| O=C(O)CSc1ncnc2c1sc1nc(-c3ccccc3)c3c(c12)CCC3 | inactive |
| Cc1ccc([N+](=O)[O-])cc1/C=N/Nc1nnnn1-c1ccccc1 | inconclusive: 16.4 µM [activator, single point] |
| c1csc(Cc2nn3c(-c4n[nH]c5c4CCC5)nnc3s2)c1 | inconclusive: 9.2 µM [inhibitor, partial curve, poor fit] |
| CCOC(=O)/C(C#N)=C/c1c[nH]c2ccccc12 | inconclusive: 13 µM [activator, partial curve] and inconclusive: 23.1 µM [activator, partial curve] |
| O=c1cc(C(F)(F)F)[nH]c2ccc(C(F)(F)F)cc12 | inconclusive: 6.51 µM [inhibitor, full curve] |
| COC(=O)c1cn(NC(=O)C2CCC(C(C)(C)C)CC2)c(=O)c2ccccc12 (stereo unspecified) | inconclusive: 4.11 µM [activator, partial curve, poor fit] |

| SMILES | Potency |
| --- | --- |
| CCCCOc1ccc(N2C(N)=NC(N)=NC23CCCCC3)cc1 | inactive |
| CCOC(=O)C1=C(N)Oc2cc(O)ccc2C1c1ccc(F)cc1F (stereo unspecified) | inactive |
| CC(=O)Nc1ccc(CN2CCN(CC=C(C)C)C(CCO)C2)cc1 (stereo unspecified) | inactive |
| CCC(C(=O)OCC(=O)N1CCN(S(=O)(=O)c2ccc(C)cc2C)CC1)c1ccccc1 (stereo unspecified) | inconclusive: 18.3 µM [inhibitor, single point] |
| O=C(COC(=O)c1ccc(S(=O)(=O)N2CCCC2)cc1)Nc1cccc(Br)c1 | inactive |
| NS(=O)(=O)c1ccc(NC(=O)c2ccc(-c3ccccc3)cc2)cc1 | inactive |
| Fc1ccccc1-c1n[nH]c(=S)n1CC1CCCO1 (stereo unspecified) | inactive |
| CCc1ccccc1-n1c(SCC(=O)N2CCCC2)nnc1-c1ccccn1 | inactive |
| COc1ccccc1C(=O)NC(=O)COC(=O)Cc1ccccc1[N+](=O)[O-] | inactive |
| Cc1ccc2[nH]c(=O)c3cc(C(=O)NCCC(C)C)sc3c2c1 | inconclusive: 20.6 µM [inhibitor, partial curve] |
| Cc1noc(C)c1NC(=O)N(C)C[C@H]1Oc2ccc(NS(=O)(=O)c3ccccc3)cc2C(=O)N([C@H](C)CO)C[C@@H]1C | inconclusive: 18.3 µM [activator, single point] |
| Cc1c([C@@H]2C[C@H]3CN(Cc4cccc(Cl)c4)C(=O)[C@]34CCCN24)cnn1C | inconclusive: 20.6 µM [inhibitor, single point] |
| CCCN1CCN(C(=O)c2cc3c(s2)-c2ccccc2OC3)CC1 | inconclusive: 23.1 µM [activator, partial curve] |
| CCCCCn1c(C(Cc2ccccc2)NC(C)=O)nc2ccccc21 (stereo unspecified) | inactive |
| Cc1ccc2nc(SCc3ccccc3)c(C=O)c(=O)n2c1 | inactive |
| CCC(C)N1CC(O)=C(c2nc3ccccc3[nH]2)C1=N (stereo unspecified) | inconclusive: 14.6 µM [activator, partial curve] |
| CCC(CO)Oc1cc(NCc2ccccc2F)c2ncn(C(C)C)c2c1 (stereo unspecified) | inconclusive: 29.1 µM [inhibitor, single point] |
| NS(=O)(=O)c1ccc(N2N=C(c3ccccc3)CC2c2cccc(Cl)c2)cc1 (stereo unspecified) | inactive |
| COc1ccc(NC(=O)c2sc3ncnc(N4CCN(c5ccccn5)CC4)c3c2C)cc1Cl | active: 2.59 µM |
| CS(=O)(=O)Nc1ccc(-c2ccc(/C=C3\SC(N)=NC3=O)o2)cc1 | inactive |
| Cc1csc(NC(=O)C2CCCC2)n1 | inconclusive: 14.6 µM [activator, partial curve] |
| COc1ccc(Cl)cc1NS(=O)(=O)c1c(C)[nH]c(C)c1C(=O)N1CCCCC1 | inactive |
| CCN(CC(=O)Nc1cccc(S(=O)(=O)N(C)c2ccccc2)c1)Cc1cccs1 | inconclusive: 29.1 µM [inhibitor, single point] |
| COc1cc(/C=C2\SC(c3ccccc3)=NC2=O)cc(Cl)c1O | inactive |

| SMILES | Potency |
| --- | --- |
| COc1ccc2c(c1OC)C(=O)N(c1ccc(F)cc1)C2 | inconclusive: 9.2 µM [activator, partial curve] |
| COCCCNC(=O)Cc1c(C)c2cc3c(cc2oc1=O)OC(C)(C)CC3 | inactive |
| CCOc1cc(/C=C/c2cccc[n+]2C)ccc1OCC(=O)Nc1ccc(C)cc1 | inactive |
| O=c1c(Cl)c(NCc2ccc(F)cc2)cnn1C12CC3CC(CC(C3)C1)C2 | inconclusive: 29.1 µM [inhibitor, single point] |
| COC(=O)CCc1c(C)nn(-c2ccccc2)c1C | inconclusive: 20.6 µM [activator, partial curve, poor fit] |
| COc1ccc(-c2cc(CCC(=O)N3CCN(c4cc(C)ccc4C)CC3)on2)cc1 | inconclusive: 29.1 µM [inhibitor, single point] |
| Cc1cccc(C)c1NC(=O)C1=C(O)c2sccc2N(C)S1(=O)=O | inactive |
| O=C(CCCN1C(=O)c2ccccc2C1=O)Nc1sc2c(c1C(=O)NCc1ccco1)CCC2 | inconclusive: 20.6 µM [inhibitor, single point] |
| O=c1c2ccccc2cnn1-c1ccc(Br)cc1 | inconclusive: 4.61 µM [activator, full curve] |
| Cc1ccsc1/C=N/N1CCN(C2c3ccccc3-c3ccccc32)CC1 | inactive |
| CCOC(=O)c1cccc(NC(=O)c2cnc3ccccc3n2)c1 | inactive |
| O=C(N/N=C/c1cccc(O)c1)c1ccc(COc2ccc3c(c2)CCC3)o1 | inactive |
| Cn1nc(N)nc1N1CCN(c2ccc(F)cc2)CC1 | inactive |
| Cc1cc(C(=O)CN2C(=O)C(=O)N(CC(C)C)C2=O)c(C)n1-c1ccccc1F | inconclusive: 20.6 µM [activator, partial curve, poor fit] |
| NC1(C#Cc2ccc3c(=O)c4ccccc4sc3c2)CCCCC1 | inconclusive: 7.3 µM [activator, partial curve] |
| CCCN1CCN(C(=O)c2oc3ccccc3c2NC(=O)C2CC2)CC1 | inconclusive: 20.6 µM [activator, partial curve, poor fit] |
| O=C(CN(CCO)c1ccccc1)Nc1ccc(Cl)c(S(=O)(=O)N2CCOCC2)c1 | inconclusive: 20.6 µM [inhibitor, single point] |
| O=C(Cc1cccs1)Nc1cccc(-c2nc3ccccc3o2)c1 | inactive |
| COC(=O)c1c(C)[nH]c(C=Nc2ccc(OC)cc2)c1C | inactive |
| CCOC(=O)N1CCC(NC(=O)CSCc2nc(-c3ccc(OC)c(OC)c3)oc2C)CC1 | inconclusive: 23.1 µM [inhibitor, single point] |
| CCN(C(=O)COC(=O)c1cnc(C)cn1)c1c(N)n(Cc2ccccc2)c(=O)[nH]c1=O | inconclusive: 14.1 µM [activator, single point] |
| COc1ccc(N(CC(=O)N/N=C/c2ccc(-c3ccc([N+](=O)[O-])cc3)o2)S(=O)(=O)c2ccc(C)cc2)cc1 | inactive |
| O=C(Cn1cnc2c(NCc3ccccc3)ncnc21)NCCc1cc2ccccc2[nH]1 | inactive |
